Experimental data as given in paper PMC9890532.
Results are given in words; binding and its absence hold for the method and conditions named. Binding seen in cells or lysates may run through a third protein. Some binding calls cover weakened binding; strength is not graded here.

Chains of the proteins cited; added tags and fusions are not shown.
UniProt Q96P20: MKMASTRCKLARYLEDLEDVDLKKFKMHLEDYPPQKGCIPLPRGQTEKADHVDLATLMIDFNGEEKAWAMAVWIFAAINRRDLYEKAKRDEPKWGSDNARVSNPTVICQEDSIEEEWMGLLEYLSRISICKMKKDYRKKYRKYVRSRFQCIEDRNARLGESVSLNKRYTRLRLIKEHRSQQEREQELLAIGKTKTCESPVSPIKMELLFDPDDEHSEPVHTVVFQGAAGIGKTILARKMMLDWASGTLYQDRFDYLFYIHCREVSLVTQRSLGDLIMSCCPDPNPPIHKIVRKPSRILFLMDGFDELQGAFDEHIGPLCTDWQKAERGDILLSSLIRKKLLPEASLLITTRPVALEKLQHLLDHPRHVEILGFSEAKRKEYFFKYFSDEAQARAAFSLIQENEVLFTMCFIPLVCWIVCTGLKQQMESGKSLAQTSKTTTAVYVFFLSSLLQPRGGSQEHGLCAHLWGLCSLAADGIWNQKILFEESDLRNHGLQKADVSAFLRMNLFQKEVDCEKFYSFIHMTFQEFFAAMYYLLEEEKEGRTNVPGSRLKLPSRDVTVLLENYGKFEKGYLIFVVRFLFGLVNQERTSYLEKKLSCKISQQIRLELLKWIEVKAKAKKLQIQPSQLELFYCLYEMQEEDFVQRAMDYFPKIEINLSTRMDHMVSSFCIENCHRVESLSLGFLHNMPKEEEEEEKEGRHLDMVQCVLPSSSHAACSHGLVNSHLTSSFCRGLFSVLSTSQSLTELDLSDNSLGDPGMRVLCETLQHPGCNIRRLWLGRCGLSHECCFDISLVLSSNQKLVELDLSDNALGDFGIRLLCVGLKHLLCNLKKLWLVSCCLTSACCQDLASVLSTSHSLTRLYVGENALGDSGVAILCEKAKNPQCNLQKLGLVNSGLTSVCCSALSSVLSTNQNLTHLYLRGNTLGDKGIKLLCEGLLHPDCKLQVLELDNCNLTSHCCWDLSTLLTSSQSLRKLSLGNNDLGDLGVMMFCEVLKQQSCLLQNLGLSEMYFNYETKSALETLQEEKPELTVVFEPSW

Biological target: T1, Thioredoxin‐interacting protein (TXNIP) (human (endogenous in HK-2)) (UniProt Q9H3M7)
T1 sequence: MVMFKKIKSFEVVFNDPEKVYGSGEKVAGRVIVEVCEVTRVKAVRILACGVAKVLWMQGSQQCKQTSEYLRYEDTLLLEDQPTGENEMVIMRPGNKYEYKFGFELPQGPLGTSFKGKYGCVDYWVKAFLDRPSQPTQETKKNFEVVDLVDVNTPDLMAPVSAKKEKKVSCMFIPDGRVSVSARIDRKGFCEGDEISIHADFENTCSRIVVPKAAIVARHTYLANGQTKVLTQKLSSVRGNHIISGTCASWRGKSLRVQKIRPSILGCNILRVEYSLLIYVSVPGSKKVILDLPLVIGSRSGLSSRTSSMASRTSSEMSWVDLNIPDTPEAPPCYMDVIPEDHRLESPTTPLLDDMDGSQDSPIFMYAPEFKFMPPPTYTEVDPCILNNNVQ
Assay: co-IP; HK-2 cell lysates in immunoprecipitation buffer with protease inhibitors, pre-cleared with IgG and A/G-beads, antibody overnight at 4°C, A/G-beads 2 h, SDS-PAGE and western blotting; NG-treated cells with PWARSN overexpression and HG-treated cells with PWARSN knockout

NOD‐like receptor thermal protein domain associated protein 3 (NLRP3) (from UniProt Q96P20 1-1036)
binding: binds
